From PMC6105673
No constants are given. Whether binding was seen depends on the method and setting. Binding seen in cells or lysates may run through a third protein. Some entries that bind do so weakly or less than the wild type.

Molecular target: HIF-2αOH WT peptide (523-542), synthetically hydroxylated (human)
Experiment: pull-down; biotinylated peptide on streptavidin agarose incubated with HIS6-PHD2 (αKG, ascorbate, FeCl2) for 1 h at room temperature, washed, then IVTT HA-VHL30 under stringent buffer conditions; anti-HA blot; only the target purified

binding: binds
Substance: HA-VHL30, in vitro transcribed and translated (IVTT) pVHL (from UniProt P40337-1 1-213)
